In the supplement of paper PMC10849652:
The list shows a part of the results.

Chains of the proteins cited; added tags and fusions are not shown. Lines headed by an entry give the natural chain unless they say otherwise; changes in a name come on top.
UniProt Q92913: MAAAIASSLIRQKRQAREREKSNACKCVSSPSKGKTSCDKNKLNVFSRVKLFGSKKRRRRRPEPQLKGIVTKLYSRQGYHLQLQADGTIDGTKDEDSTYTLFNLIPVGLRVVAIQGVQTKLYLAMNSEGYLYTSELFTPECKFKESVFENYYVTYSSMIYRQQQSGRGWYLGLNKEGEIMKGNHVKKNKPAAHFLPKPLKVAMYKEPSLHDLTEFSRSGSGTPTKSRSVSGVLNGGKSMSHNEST
UniProt Q86UX7, whole entry, looked up: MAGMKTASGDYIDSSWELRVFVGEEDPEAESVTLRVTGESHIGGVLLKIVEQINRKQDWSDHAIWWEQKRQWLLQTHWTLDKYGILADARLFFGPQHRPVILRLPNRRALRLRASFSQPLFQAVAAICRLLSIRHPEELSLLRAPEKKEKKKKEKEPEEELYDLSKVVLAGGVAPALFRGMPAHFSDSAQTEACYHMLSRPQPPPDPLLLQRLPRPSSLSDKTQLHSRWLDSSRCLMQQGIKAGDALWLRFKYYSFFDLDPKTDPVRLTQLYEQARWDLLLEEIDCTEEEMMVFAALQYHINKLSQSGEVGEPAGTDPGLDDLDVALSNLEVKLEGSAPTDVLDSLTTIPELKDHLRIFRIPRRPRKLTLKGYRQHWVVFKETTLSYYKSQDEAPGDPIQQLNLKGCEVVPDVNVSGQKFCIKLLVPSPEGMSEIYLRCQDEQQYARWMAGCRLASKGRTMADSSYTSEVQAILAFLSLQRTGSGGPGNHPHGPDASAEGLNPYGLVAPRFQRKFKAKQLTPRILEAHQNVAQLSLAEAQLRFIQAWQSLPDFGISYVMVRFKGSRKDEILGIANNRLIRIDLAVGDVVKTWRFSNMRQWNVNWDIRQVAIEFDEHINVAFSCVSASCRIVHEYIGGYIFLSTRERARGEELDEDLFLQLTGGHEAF
UniProt P22087: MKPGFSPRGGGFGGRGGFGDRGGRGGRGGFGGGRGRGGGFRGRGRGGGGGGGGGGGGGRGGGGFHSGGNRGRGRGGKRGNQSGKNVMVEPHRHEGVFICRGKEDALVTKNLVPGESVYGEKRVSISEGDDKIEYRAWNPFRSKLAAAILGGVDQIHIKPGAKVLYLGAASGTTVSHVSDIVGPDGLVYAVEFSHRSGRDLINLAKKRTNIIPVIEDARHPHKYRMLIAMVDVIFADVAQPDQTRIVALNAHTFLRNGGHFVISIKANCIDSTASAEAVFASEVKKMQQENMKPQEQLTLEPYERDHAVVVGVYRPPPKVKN
UniProt Q8N3X1: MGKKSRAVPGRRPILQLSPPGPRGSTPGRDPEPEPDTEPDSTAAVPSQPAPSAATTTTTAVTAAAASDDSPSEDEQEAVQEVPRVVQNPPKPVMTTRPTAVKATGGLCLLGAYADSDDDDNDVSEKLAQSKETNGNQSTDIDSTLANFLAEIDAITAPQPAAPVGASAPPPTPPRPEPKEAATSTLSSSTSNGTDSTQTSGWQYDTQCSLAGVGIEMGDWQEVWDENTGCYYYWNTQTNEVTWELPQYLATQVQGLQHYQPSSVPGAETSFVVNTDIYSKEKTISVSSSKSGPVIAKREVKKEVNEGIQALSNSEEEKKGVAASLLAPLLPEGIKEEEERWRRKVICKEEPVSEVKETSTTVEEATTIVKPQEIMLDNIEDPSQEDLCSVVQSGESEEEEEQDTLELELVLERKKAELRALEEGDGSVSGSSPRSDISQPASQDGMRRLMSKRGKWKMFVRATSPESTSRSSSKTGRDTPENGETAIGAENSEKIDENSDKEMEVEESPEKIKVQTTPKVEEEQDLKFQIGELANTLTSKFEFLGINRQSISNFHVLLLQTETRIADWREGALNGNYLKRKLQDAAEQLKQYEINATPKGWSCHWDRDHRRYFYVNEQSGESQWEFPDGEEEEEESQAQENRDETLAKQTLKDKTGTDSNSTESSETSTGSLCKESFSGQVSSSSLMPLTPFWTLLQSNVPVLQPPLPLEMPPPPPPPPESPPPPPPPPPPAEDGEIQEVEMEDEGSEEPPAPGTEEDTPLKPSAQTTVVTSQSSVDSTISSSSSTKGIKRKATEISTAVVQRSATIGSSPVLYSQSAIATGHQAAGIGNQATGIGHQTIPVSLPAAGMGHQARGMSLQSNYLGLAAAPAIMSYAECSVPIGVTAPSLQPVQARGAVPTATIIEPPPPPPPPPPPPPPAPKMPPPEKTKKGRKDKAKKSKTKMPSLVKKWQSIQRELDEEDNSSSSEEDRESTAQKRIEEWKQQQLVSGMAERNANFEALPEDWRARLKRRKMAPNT
UniProt Q8WVX9: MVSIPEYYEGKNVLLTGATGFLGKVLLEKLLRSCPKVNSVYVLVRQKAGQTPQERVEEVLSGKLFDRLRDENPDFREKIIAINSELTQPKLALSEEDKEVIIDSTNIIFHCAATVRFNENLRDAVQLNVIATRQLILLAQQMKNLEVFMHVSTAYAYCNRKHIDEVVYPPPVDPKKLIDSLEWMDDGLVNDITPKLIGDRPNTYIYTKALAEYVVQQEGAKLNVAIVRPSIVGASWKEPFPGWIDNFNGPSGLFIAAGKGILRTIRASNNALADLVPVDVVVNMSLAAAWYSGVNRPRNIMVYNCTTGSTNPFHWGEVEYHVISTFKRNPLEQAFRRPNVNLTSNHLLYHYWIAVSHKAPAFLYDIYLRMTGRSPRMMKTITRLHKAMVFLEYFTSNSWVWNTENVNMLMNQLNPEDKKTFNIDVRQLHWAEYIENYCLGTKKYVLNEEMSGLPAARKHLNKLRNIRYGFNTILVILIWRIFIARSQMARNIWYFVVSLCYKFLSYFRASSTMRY
UniProt O95363: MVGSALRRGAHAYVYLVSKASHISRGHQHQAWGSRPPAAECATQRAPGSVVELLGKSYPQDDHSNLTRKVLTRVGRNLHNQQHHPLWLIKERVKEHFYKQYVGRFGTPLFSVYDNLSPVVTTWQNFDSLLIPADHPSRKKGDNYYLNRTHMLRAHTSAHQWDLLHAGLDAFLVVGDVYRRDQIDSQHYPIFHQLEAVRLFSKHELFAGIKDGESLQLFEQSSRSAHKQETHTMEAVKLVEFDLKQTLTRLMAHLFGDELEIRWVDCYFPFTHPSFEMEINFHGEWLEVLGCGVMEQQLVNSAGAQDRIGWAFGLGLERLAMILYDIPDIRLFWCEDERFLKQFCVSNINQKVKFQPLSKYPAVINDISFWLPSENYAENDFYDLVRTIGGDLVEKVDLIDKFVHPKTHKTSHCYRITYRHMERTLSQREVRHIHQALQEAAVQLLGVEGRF
UniProt P02751, whole entry, looked up: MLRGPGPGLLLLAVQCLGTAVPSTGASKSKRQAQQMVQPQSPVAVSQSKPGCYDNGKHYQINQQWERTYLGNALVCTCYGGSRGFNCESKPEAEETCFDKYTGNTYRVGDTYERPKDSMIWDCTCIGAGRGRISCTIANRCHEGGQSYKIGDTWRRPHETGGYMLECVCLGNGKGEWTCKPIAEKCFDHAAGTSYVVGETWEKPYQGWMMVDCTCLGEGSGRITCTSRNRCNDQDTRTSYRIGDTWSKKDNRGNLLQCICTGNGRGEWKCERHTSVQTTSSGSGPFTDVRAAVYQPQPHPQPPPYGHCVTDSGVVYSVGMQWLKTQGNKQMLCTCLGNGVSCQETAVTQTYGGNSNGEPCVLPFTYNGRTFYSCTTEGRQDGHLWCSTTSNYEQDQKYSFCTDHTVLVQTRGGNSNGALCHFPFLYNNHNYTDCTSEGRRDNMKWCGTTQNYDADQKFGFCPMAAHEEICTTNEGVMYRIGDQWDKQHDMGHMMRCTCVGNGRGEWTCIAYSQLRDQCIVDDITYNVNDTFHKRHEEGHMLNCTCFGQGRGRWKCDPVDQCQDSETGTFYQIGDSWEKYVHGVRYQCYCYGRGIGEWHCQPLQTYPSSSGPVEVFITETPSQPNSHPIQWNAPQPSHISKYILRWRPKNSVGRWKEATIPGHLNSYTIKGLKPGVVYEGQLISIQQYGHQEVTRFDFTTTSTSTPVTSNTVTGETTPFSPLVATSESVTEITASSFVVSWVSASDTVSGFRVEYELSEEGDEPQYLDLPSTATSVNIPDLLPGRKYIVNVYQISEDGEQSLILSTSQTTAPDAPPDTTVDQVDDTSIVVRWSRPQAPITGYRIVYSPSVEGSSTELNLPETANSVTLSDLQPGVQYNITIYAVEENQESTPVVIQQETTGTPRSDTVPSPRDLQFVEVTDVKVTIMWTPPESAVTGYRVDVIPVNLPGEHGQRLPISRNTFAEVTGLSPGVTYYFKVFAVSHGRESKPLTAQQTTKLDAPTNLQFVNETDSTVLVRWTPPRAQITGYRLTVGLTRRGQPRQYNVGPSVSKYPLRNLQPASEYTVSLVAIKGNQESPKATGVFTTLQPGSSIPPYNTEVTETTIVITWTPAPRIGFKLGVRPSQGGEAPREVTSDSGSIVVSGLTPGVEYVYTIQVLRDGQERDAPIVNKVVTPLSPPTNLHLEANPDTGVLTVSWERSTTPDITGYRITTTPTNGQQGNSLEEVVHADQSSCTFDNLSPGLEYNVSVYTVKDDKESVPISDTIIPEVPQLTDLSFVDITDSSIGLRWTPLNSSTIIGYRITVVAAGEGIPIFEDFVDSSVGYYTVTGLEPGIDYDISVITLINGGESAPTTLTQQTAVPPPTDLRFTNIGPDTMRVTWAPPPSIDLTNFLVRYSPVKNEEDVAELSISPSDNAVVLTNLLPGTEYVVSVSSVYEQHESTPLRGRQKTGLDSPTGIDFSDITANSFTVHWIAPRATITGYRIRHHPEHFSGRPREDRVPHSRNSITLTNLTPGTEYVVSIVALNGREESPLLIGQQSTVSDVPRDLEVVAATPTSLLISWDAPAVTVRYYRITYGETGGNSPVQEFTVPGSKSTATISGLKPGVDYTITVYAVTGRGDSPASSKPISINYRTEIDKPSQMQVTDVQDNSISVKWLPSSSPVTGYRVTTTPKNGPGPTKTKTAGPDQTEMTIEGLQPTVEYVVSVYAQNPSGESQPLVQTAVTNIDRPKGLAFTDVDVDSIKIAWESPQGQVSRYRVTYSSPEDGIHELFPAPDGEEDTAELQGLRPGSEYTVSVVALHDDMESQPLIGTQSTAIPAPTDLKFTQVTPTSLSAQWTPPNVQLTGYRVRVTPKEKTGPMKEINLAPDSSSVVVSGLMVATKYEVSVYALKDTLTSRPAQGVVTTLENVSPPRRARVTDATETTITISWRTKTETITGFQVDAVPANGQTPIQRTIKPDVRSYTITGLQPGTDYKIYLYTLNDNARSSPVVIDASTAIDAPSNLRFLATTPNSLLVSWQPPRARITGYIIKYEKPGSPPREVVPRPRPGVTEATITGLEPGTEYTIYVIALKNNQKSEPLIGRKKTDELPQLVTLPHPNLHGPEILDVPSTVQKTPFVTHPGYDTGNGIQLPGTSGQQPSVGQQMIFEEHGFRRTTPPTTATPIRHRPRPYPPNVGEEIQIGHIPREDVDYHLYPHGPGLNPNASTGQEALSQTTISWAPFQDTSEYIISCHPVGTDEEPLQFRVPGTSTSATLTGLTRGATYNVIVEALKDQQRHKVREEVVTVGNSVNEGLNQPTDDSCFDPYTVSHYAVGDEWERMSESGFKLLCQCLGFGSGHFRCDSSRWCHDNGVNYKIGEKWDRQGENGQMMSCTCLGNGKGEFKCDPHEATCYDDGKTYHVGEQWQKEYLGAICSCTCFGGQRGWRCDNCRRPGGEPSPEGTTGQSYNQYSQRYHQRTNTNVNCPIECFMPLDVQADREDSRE
UniProt Q13451: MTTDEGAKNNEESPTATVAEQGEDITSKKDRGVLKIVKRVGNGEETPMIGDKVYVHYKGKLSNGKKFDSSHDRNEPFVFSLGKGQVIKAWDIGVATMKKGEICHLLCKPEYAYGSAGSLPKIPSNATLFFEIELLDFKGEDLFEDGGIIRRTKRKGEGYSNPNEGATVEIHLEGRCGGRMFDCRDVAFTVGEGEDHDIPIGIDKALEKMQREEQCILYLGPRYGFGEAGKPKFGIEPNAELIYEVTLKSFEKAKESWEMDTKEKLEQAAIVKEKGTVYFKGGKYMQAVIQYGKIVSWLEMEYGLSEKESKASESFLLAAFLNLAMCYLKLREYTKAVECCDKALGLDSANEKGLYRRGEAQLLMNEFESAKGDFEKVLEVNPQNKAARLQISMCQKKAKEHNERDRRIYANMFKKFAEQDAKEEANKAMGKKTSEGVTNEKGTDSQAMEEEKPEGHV
UniProt Q96ND0: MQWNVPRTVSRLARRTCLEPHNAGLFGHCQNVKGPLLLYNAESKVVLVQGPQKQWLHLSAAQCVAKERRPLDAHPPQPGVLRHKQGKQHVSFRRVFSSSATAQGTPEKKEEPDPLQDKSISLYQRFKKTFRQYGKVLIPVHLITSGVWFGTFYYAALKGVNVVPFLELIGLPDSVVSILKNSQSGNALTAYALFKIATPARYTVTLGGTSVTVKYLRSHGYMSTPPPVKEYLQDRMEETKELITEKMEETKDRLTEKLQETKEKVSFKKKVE
UniProt Q9Y3D6: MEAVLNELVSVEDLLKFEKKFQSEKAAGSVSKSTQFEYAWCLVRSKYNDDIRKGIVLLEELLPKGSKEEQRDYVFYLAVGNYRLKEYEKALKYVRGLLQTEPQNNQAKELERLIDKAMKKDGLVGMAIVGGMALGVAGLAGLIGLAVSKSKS

compound: CN(C)CC(=O)Nc1ccc2[nH]c(=O)c3ccccc3c2c1; experiment: log2 fold change, soluble protein after heating vs DMSO (PISA); higher = thermal stabilisation; K562 cells, 10 uM, 30 min; active = over 0.2 and 3.5 SD of the protein, either way, in both replicates (recomputed)
Procedure, shortened: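 Values are thermal stability changes relative to control samples and are taken from duplicates. They are stated as log2 fold changes. Before quantification by TMTpro 16plex LC-MS/MS with equalised channel sums, K562 cells at 2×10^6 cells/mL were treated with 10 μM compound for 30 min, heated in aliquots for 3 min across 48°C-58°C, pooled, extracted in PBS with 0.5% NP-40 at 4°C, and centrifuged at 21,000xg for 90 min to give the soluble supernatant.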

log2 fold change, inactive:
FGF13 isoform 3 (UniProt Q92913) 0.014
FERMT3 (UniProt Q86UX7) 0.045
FBXO6 (UniProt Q9NRD1) 0.036
FBL (UniProt P22087) -0.143
FNBP4 isoform 2 (UniProt Q8N3X1) -0.041
FAR1 (UniProt Q8WVX9) 0.028
FBH1 isoform 2 (UniProt Q8NFZ0) 0.1
FARS2 (UniProt O95363) -0.036
FN1 isoform 1 (UniProt P02751) -0.062
FKBP4 (UniProt Q02790) 0.019
FKBP5 (UniProt Q13451) 0.118
FAT3 isoform 1 (UniProt Q8TDW7) -0.133
FAM210A (UniProt Q96ND0) 0.026
FIS1 (UniProt Q9Y3D6) 0.01
FBXW9 (UniProt Q5XUX1) 0.034

Quoted from the listing for reference:
log2 fold change, inactive:
FBL (UniProt P22087) -0.143
FNBP4 isoform 2 (UniProt Q8N3X1) -0.041
